These are yes or no findings as the source states them, for the method shown. Some results given as binding are weak or reduced against the parent protein; the word gives no strength. Where a sequence is shown, tags or fusion partners need not be part of it.
What was measured:
[1] = biological target: β-galactosidase (β-gal, Sigma) (E. coli) [β-galactosidase: P00722]; assay: ELISA of soluble cell lysate on β-gal-coated plates, anti-FLAG detection
[2] = biological target: β-galactosidase (β-gal, Sigma) (E. coli) [β-galactosidase: P00722]; assay: ELISA of 70S ribosome fractions on β-gal-coated plates; mRNA recovered after panning on immobilized β-gal
[3] = biological target: β-galactosidase (β-gal, Sigma) (E. coli) [β-galactosidase: P00722]; assay: ELISA of 70S ribosome fractions on β-gal-coated plates
[4] = biological target: β-galactosidase (β-gal, Sigma) (E. coli) [β-galactosidase: P00722]; assay: panning of ARM complexes on immobilized β-gal, RT-PCR of the eluted mRNA

binding [1]	binding [2]	binding [3]	binding [4]	Binder
binds				wt scFv13 (human anti-β-gal single-chain variable fragment, unfused) (scFv) scFv: MADYKDDDDKGGSAEVQLVESGGGLVKPGGSLRLSCAASGFTFSNYSMNWVRQAPGKGLEWVSSISSSSSYIYYADFVKGRFTISRDNAKNSLYLQMNSLRAEDTAVYYCARSSITIFGGGMDVWGRGTLVTVSSGGGGSGGGGSGGGGSQSVLTQPASVSGSPGQSITISCAGTSSDVGGYNYVSWYQQHPGKAPKLMIYEGSKRPSGVSNRFSGSKSGNTASLTISGLQAEDEADYYCSSYTTRSTRVFGGGTKLAVLGAAAEQKLISEEDLNGAAELHHHHHH
binds	binds	binds	binds	scFv13-SecM17 fusion (wt scFv13 fused to the 17-residue SecM stall sequence) (scFv, not shown: small tags and cut ends) scFv (part 1 of 2): MADYKDDDDKGGSAEVQLVESGGGLVKPGGSLRLSCAASGFTFSNYSMNWVRQAPGKGLEWVSSISSSSSYIYYADFVKGRFTISRDNAKNSLYLQMNSLRAEDTAVYYCARSSITIFGGGMDVWGRGTLVTVSSGGGGSGGGGSGGGGSQSVLTQPASVSGSPGQSITISCAGTSSDVGGYNYVSWYQQHPGKAPKLMIYEGSKRPSGVSNRFSGSKSGNTASLTISGLQAEDEADYYCSSYTTRSTRVFGGGTKLAVLGAAAEQKLISEEDLNGAAELHHHHHH scFv (part 2 of 2): AGSAAGSGFSTPVWISQAQGIRAGP

Reference: US20110008774A1
